Experimental data taken from publication PMC11026443.
These are yes or no findings as the source states them, for the method shown. Binding seen in cells or lysates may run through a third protein. Some results given as binding are weak or reduced against the parent protein; the word gives no strength.

Amino acid sequences for entries named in this document (tags omitted).
UniProt Q5U3H2: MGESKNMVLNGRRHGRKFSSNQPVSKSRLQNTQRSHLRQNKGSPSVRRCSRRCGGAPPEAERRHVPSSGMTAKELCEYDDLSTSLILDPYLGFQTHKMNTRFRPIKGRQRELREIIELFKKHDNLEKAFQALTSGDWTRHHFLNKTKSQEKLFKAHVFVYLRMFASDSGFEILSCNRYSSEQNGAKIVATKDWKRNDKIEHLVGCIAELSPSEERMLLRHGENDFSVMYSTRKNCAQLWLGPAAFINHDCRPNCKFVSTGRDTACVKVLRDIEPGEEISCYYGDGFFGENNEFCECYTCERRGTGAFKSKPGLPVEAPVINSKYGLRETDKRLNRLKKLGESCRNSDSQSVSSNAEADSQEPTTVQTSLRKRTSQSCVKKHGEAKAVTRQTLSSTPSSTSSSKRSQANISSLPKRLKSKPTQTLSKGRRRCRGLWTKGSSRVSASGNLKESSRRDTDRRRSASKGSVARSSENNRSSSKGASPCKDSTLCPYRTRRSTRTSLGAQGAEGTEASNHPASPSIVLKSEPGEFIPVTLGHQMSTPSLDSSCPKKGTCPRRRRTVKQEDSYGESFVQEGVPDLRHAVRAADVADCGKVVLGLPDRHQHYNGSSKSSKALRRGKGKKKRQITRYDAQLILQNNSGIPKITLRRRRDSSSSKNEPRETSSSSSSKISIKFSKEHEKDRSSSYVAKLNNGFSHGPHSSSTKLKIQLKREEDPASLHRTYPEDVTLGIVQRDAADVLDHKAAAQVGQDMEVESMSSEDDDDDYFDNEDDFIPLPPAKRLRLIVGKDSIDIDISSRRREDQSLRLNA

Legend:
mCherry-hRB1 (human) = biological target: T1, mCherry-hRB1 (human) (UniProt P06400); assay: co-IP; lysate of 293T cells transfected for 48 h with GFP-Kmt5b and mCherry-hRB1, mCherry-hRB1^R621S or mCherry-hRB1^L819V; IP with anti-GFP overnight at 4 °C and protein G Dynabeads, reciprocal IP with anti-mCherry; control IgG; western blot
T1 sequence: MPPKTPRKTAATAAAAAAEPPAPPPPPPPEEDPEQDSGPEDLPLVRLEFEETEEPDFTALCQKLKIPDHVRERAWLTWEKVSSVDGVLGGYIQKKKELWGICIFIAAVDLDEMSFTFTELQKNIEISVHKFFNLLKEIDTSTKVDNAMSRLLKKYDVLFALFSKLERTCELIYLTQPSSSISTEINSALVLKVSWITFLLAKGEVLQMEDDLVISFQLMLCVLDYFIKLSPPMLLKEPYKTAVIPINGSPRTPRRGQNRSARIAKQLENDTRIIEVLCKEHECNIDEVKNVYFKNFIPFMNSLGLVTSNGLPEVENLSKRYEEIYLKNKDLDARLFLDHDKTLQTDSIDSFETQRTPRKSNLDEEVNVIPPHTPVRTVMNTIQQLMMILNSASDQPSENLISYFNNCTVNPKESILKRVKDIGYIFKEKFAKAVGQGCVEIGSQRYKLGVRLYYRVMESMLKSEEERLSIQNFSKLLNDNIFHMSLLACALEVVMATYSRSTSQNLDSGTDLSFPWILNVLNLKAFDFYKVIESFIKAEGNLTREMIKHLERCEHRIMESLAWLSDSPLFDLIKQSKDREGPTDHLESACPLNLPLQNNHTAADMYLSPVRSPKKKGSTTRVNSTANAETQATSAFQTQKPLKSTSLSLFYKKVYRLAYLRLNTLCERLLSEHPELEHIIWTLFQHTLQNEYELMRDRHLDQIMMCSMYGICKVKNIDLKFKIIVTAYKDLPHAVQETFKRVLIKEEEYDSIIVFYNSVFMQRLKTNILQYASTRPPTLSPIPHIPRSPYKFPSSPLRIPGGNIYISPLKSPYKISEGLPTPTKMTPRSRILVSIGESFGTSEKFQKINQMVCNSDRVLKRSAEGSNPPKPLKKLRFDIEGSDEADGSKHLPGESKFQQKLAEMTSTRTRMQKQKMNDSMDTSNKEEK

[1] = biological target: GFP-Kmt5b (expressed in 293T cells) (zebrafish) (UniProt Q5U3H2); assay: as above

Row | Molecule | binding (mCherry-hRB1 (human)) | binding [1]
1 | GFP-Kmt5b (expressed in 293T cells) (from UniProt Q5U3H2 1-808) | binds | 
2 | mCherry-hRB1 (protein, UniProt P06400 1-928) MPPKTPRKTAATAAAAAAEPPAPPPPPPPEEDPEQDSGPEDLPLVRLEFEETEEPDFTALCQKLKIPDHVRERAWLTWEKVSSVDGVLGGYIQKKKELWGICIFIAAVDLDEMSFTFTELQKNIEISVHKFFNLLKEIDTSTKVDNAMSRLLKKYDVLFALFSKLERTCELIYLTQPSSSISTEINSALVLKVSWITFLLAKGEVLQMEDDLVISFQLMLCVLDYFIKLSPPMLLKEPYKTAVIPINGSPRTPRRGQNRSARIAKQLENDTRIIEVLCKEHECNIDEVKNVYFKNFIPFMNSLGLVTSNGLPEVENLSKRYEEIYLKNKDLDARLFLDHDKTLQTDSIDSFETQRTPRKSNLDEEVNVIPPHTPVRTVMNTIQQLMMILNSASDQPSENLISYFNNCTVNPKESILKRVKDIGYIFKEKFAKAVGQGCVEIGSQRYKLGVRLYYRVMESMLKSEEERLSIQNFSKLLNDNIFHMSLLACALEVVMATYSRSTSQNLDSGTDLSFPWILNVLNLKAFDFYKVIESFIKAEGNLTREMIKHLERCEHRIMESLAWLSDSPLFDLIKQSKDREGPTDHLESACPLNLPLQNNHTAADMYLSPVRSPKKKGSTTRVNSTANAETQATSAFQTQKPLKSTSLSLFYKKVYRLAYLRLNTLCERLLSEHPELEHIIWTLFQHTLQNEYELMRDRHLDQIMMCSMYGICKVKNIDLKFKIIVTAYKDLPHAVQETFKRVLIKEEEYDSIIVFYNSVFMQRLKTNILQYASTRPPTLSPIPHIPRSPYKFPSSPLRIPGGNIYISPLKSPYKISEGLPTPTKMTPRSRILVSIGESFGTSEKFQKINQMVCNSDRVLKRSAEGSNPPKPLKKLRFDIEGSDEADGSKHLPGESKFQQKLAEMTSTRTRMQKQKMNDSMDTSNKEEK |  | binds
3 | mCherry-hRB1^R621S (protein, UniProt P06400 1-928) MPPKTPRKTAATAAAAAAEPPAPPPPPPPEEDPEQDSGPEDLPLVRLEFEETEEPDFTALCQKLKIPDHVRERAWLTWEKVSSVDGVLGGYIQKKKELWGICIFIAAVDLDEMSFTFTELQKNIEISVHKFFNLLKEIDTSTKVDNAMSRLLKKYDVLFALFSKLERTCELIYLTQPSSSISTEINSALVLKVSWITFLLAKGEVLQMEDDLVISFQLMLCVLDYFIKLSPPMLLKEPYKTAVIPINGSPRTPRRGQNRSARIAKQLENDTRIIEVLCKEHECNIDEVKNVYFKNFIPFMNSLGLVTSNGLPEVENLSKRYEEIYLKNKDLDARLFLDHDKTLQTDSIDSFETQRTPRKSNLDEEVNVIPPHTPVRTVMNTIQQLMMILNSASDQPSENLISYFNNCTVNPKESILKRVKDIGYIFKEKFAKAVGQGCVEIGSQRYKLGVRLYYRVMESMLKSEEERLSIQNFSKLLNDNIFHMSLLACALEVVMATYSRSTSQNLDSGTDLSFPWILNVLNLKAFDFYKVIESFIKAEGNLTREMIKHLERCEHRIMESLAWLSDSPLFDLIKQSKDREGPTDHLESACPLNLPLQNNHTAADMYLSPVRSPKKKGSTTSVNSTANAETQATSAFQTQKPLKSTSLSLFYKKVYRLAYLRLNTLCERLLSEHPELEHIIWTLFQHTLQNEYELMRDRHLDQIMMCSMYGICKVKNIDLKFKIIVTAYKDLPHAVQETFKRVLIKEEEYDSIIVFYNSVFMQRLKTNILQYASTRPPTLSPIPHIPRSPYKFPSSPLRIPGGNIYISPLKSPYKISEGLPTPTKMTPRSRILVSIGESFGTSEKFQKINQMVCNSDRVLKRSAEGSNPPKPLKKLRFDIEGSDEADGSKHLPGESKFQQKLAEMTSTRTRMQKQKMNDSMDTSNKEEK |  | no binding
4 | mCherry-hRB1^L819V (protein, UniProt P06400 1-928) MPPKTPRKTAATAAAAAAEPPAPPPPPPPEEDPEQDSGPEDLPLVRLEFEETEEPDFTALCQKLKIPDHVRERAWLTWEKVSSVDGVLGGYIQKKKELWGICIFIAAVDLDEMSFTFTELQKNIEISVHKFFNLLKEIDTSTKVDNAMSRLLKKYDVLFALFSKLERTCELIYLTQPSSSISTEINSALVLKVSWITFLLAKGEVLQMEDDLVISFQLMLCVLDYFIKLSPPMLLKEPYKTAVIPINGSPRTPRRGQNRSARIAKQLENDTRIIEVLCKEHECNIDEVKNVYFKNFIPFMNSLGLVTSNGLPEVENLSKRYEEIYLKNKDLDARLFLDHDKTLQTDSIDSFETQRTPRKSNLDEEVNVIPPHTPVRTVMNTIQQLMMILNSASDQPSENLISYFNNCTVNPKESILKRVKDIGYIFKEKFAKAVGQGCVEIGSQRYKLGVRLYYRVMESMLKSEEERLSIQNFSKLLNDNIFHMSLLACALEVVMATYSRSTSQNLDSGTDLSFPWILNVLNLKAFDFYKVIESFIKAEGNLTREMIKHLERCEHRIMESLAWLSDSPLFDLIKQSKDREGPTDHLESACPLNLPLQNNHTAADMYLSPVRSPKKKGSTTRVNSTANAETQATSAFQTQKPLKSTSLSLFYKKVYRLAYLRLNTLCERLLSEHPELEHIIWTLFQHTLQNEYELMRDRHLDQIMMCSMYGICKVKNIDLKFKIIVTAYKDLPHAVQETFKRVLIKEEEYDSIIVFYNSVFMQRLKTNILQYASTRPPTLSPIPHIPRSPYKFPSSPLRIPGGNIYISPLKSPYKISEGVPTPTKMTPRSRILVSIGESFGTSEKFQKINQMVCNSDRVLKRSAEGSNPPKPLKKLRFDIEGSDEADGSKHLPGESKFQQKLAEMTSTRTRMQKQKMNDSMDTSNKEEK |  | no binding
